In paper doi:10.1101/594382:
Read-outs that look alike come from different tables or passages of the source. Results are given in words; binding and its absence hold for the method and conditions named. Some results given as binding are weak or reduced against the parent protein; the word gives no strength.

Protein sequences, listed by entry. Tags and fused reporters are not part of them.
UniProt P94400, whole entry: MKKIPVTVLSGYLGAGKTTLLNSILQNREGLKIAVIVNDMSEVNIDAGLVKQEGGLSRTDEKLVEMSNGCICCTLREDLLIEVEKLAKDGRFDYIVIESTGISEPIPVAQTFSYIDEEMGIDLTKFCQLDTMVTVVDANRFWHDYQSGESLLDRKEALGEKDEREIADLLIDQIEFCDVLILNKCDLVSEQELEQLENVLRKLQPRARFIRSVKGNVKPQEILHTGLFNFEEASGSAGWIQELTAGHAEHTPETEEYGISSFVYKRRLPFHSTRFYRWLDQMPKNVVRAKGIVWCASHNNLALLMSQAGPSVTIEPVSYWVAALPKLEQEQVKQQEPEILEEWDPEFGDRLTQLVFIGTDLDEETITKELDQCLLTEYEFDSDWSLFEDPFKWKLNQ

Columns and labels:
Test in all cases: two-hybrid
[1] = target: T1, Bacillus subtilis FolE, zinc dependent GTP cyclohydrolase (B. subtilis) (UniProt P19465)
T1 sequence: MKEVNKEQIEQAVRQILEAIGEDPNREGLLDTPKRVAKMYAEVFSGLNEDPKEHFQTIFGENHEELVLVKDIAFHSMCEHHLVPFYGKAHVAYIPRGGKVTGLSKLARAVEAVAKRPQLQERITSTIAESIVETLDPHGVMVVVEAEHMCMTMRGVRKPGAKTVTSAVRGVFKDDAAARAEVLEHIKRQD

[2] = target: T2, Bacillus subtilis FolE2, zinc-independent GTP cyclohydrolase (B. subtilis) (UniProt P94398)
T2 sequence: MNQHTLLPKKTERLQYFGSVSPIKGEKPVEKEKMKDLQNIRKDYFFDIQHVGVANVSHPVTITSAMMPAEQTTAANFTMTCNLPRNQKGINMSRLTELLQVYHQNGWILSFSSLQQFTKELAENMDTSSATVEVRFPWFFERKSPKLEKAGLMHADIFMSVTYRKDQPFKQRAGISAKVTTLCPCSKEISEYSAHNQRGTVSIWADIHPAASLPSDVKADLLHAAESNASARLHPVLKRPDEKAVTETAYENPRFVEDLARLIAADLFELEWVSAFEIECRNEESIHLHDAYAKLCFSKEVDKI

[3] = target: T1, Bacillus subtilis FolE, zinc dependent GTP cyclohydrolase (B. subtilis); remark: listed apart in the source
[4] = target: T2, Bacillus subtilis FolE2, zinc-independent GTP cyclohydrolase (B. subtilis); remark: listed apart in the source

Bacillus subtilis ZagA (ZTP activated GTPase A), zinc metallochaperone (from UniProt P94400 1-397)
binding [1]: binds | binding [2]: no binding | binding [3]: binds | binding [4]: no binding
